According to publication PMC9837006:
Results are given in words; binding and its absence hold for the method and conditions named. In cells and extracts the contact can be indirect. A yes stands for co-enrichment or nearness to the bait. Other partners may have been found.

Chains of the proteins cited; added tags and fusions are not shown.
UniProt P05412: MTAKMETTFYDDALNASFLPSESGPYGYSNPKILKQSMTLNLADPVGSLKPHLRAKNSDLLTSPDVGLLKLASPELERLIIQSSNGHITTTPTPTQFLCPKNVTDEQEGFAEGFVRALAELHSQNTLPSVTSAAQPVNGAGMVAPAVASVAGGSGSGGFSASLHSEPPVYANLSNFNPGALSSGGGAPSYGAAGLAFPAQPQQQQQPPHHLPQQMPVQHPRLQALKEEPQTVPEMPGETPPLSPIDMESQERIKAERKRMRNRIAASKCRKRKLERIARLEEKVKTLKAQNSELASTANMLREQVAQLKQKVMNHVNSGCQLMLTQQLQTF
UniProt Q13887: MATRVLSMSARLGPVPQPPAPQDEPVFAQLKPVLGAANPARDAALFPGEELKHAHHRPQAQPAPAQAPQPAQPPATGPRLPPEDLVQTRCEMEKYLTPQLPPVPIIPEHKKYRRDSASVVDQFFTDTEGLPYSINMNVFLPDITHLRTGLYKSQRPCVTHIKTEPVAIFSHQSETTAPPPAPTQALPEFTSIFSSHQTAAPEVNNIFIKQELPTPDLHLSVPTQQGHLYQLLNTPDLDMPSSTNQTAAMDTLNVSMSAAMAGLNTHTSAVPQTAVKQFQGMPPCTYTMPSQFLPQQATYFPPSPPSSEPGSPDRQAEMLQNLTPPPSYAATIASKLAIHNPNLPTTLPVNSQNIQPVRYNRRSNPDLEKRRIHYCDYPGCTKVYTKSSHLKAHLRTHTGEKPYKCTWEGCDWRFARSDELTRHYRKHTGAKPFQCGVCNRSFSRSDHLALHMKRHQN

Columns and labels:
[1] = target: 3xFlag-WT-YAP1 (isoform with 504aa) (human) (UniProt P46937); assay: affinity purification with mass spectrometry; Flag-IP-MS: lysate of SRC-activated normal epithelial cells stably expressing 3xFlag-WT-YAP1 or 3xFlag-mut-YAP1; anti-Flag resin 2 h at 4 °C, elution with 3xFlag peptide, then streptavidin resin, elution with 4 mM biotin; LC/ESI MS/MS
[2] = target: 3xFlag-mut-YAP1 (3YF mutant) (human) (UniProt P46937); assay: as above

binding [1]	binding [2]	Substance
binds	binds	C-JUN, endogenous (from UniProt P05412 1-331)
binds		Kruppel-like factor 5 (KLF5), endogenous (from UniProt Q13887 1-457)
